# In PubChem BioAssay AID504834 (National Center for Advancing Translational Sciences (NCATS), 2011):
# Hit rate of the full screen: of about 320,000 compounds, about 22,000 (6.9%) were called active. The shares of active, inactive and inconclusive entries below differ from those in the screen. The call rests on the fitted dose curve; in most records, active means well fitted inhibition curve with a large enough effect; inconclusive means small, poorly fitted or top-dose-only effect, or another doubt; inactive means no such curve, though single readings can be large or run the other way. Where the call is inconclusive, the potency comes from a doubtful curve fit.
# Experiment: Primary qHTS for delayed death inhibitors of the malarial parasite plastid, 96 hour incubation
# Settings: P. falciparum luciferase reporter growth; series mostly up to 28.7 µM; activity change, negative = inhibition: at the top concentration
# In short: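 Infected RBCs, 2% Hct / 0.05% parasitemia final; luciferase-reporter P. falciparum; cpd 96 h, 37 C, 5% CO2; luciferase detection reagent; luminescence.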
# On the % scale 0 is the no-effect control and ±100 the full control effect; potency means the concentration at half of the fitted maximal effect.
Compound,"activity change, negative = inhibition",Potency
C=CCNC(=O)CSCc1ccc(Br)cc1,inactive: 23.8%,–
CC1CCCN(C(=O)COc2ccc3c(c2)OCO3)C1 (configuration not stated),inactive: 62.5%,–
CSc1nc(-c2ccccc2)cc(C(F)(F)F)c1C#N,–,"inconclusive: 11.7 µM [inhibitor, single point]"
Cc1c(Cl)cccc1NC(=O)CCC(=O)NNC(=O)c1ccco1,inactive: 0%,–
C=CCNC(=S)NN=C1CCC(c2ccccc2)CC1 (configuration not stated),inactive: 14.6%,–
CC1(CCc2ccc(O)cc2)NC(=O)NC1=O (configuration not stated),inactive: 0%,–
CC1CCCCC1NC(=O)C(Cc1ccccc1)NS(=O)(=O)c1cccs1 (configuration not stated),–,"inconclusive: 16.5 µM [inhibitor, single point]"
Cc1nnc(SCC(=O)Nc2cccc(S(=O)(=O)N3CCCCC3)c2)s1,–,"inconclusive: 10.4 µM [inhibitor, single point]"
O=C(Nc1ccccc1)c1nn(-c2ccccc2)c(=O)cc1C(F)(F)F,–,"inconclusive: 0.0522 µM [inhibitor, full curve, poor fit]"
COC(=O)c1ccc(N2CCN(S(=O)(=O)c3c(C)cc(C)cc3C)CC2)c([N+](=O)[O-])c1,–,"inconclusive: 9.28 µM [inhibitor, single point]"
COc1ccc([C@@H]2CC=C(C(=O)O)[C@H](c3ccc(Cl)cc3)N2S(=O)(=O)c2ccc(C)cc2)cc1OC,–,active: 13.1 µM
CCN(CCCCOC(=O)c1ccc(OC)c(OC)c1)[C@@H](C)Cc1ccc(OC)cc1,–,"inconclusive: 8.09 µM [inhibitor, single point]"
COC(=O)CN1C(=O)S/C(=C/c2cc(C)n(C)c2C)C1=O,–,"inconclusive: 0.0329 µM [inhibitor, full curve, poor fit]"
CN(CC(=O)N1CCN(c2ccccc2)CC1)C1CCCc2ccccc21 (configuration not stated),inactive: -8.48%,–
CC(C)[C@H](NC(=O)c1ccccc1Cl)C(=O)Nc1nc(-c2ccccn2)cs1,–,"inconclusive: 18.5 µM [inhibitor, single point]"
COc1ccc(-c2cc(C(=O)Nc3c(Cl)cc(Cl)cc3Cl)c3ccccc3n2)cc1OC,–,"inconclusive: 11.7 µM [inhibitor, single point]"
CC(COc1ccccc1)NC(C)C(O)c1ccc(O)cc1 (configuration not stated),–,"inconclusive: 11.7 µM [inhibitor, partial curve, poor fit]"
Cc1c(C(=O)NNC(=O)c2ccncc2)oc2ccccc12,–,"inconclusive: 10.4 µM [inhibitor, single point]"
CCN(Cc1cc2ccccc2[nH]c1=O)C(=O)C(C)C,–,active: 0.928 µM
COC(=O)c1cccc(COC(=O)c2ccc(N(C)C)cc2)c1,inactive: 20.3%,–
Cc1nnc(C)n1/N=C/c1cc(Br)ccc1O,inactive: -20.7%,–
CC1CCCCC1NC(=O)c1nn(C)c2c1CS(=O)(=O)c1ccccc1-2 (configuration not stated),–,"inconclusive: 1.31 µM [inhibitor, full curve]"
CC(=O)c1ccc(N2CCN(CN3C(=O)CC4(CCCC4)C3=O)CC2)c(F)c1,inactive: 4.21%,–
CCc1nc(Nc2cccc(F)c2)c2oc3ccccc3c2n1,–,"inconclusive: 14.7 µM [inhibitor, partial curve, poor fit]"

# Not a retest: an excerpt of the list.
Compound,"activity change, negative = inhibition",Potency
COC(=O)CN1C(=O)S/C(=C/c2cc(C)n(C)c2C)C1=O,–,"inconclusive: 0.0329 µM [inhibitor, full curve, poor fit]"
CN(CC(=O)N1CCN(c2ccccc2)CC1)C1CCCc2ccccc21 (configuration not stated),inactive: -8.48%,–

# Following part

Compound,"activity change, negative = inhibition",Potency
CN(C)C(CNC(=O)c1ccc(-c2ccccc2)cc1)c1ccccc1 (configuration not stated),–,"inconclusive: 18.5 µM [inhibitor, single point]"
O=C(CCl)N(CCc1ccccc1)CCc1ccccc1,–,"inconclusive: 10.4 µM [inhibitor, single point]"
Cc1nc([N+](=O)[O-])cn1C(C)C,–,"inconclusive: 4.15 µM [inhibitor, single point]"
COc1cc(/C=C2\SC(=O)N(c3ccc(Cl)cc3)C2=O)cc([N+](=O)[O-])c1O,–,"inconclusive: 7.38 µM [inhibitor, partial curve, poor fit]"
COc1ccc(NC(=S)Nc2ccc(Oc3ccccc3)cc2)cc1,–,"inconclusive: 18.5 µM [inhibitor, single point]"
CC(C)CC(=O)NC(NC(=S)Nc1sc2c(c1C#N)CCCC2)C(Cl)(Cl)Cl (configuration not stated),–,"inconclusive: 11.7 µM [inhibitor, single point]"
Cc1cccc(CC(=O)N2CCN(C(=O)c3ccco3)CC2)c1,inactive: -0.339%,–
O=C(N/N=C/c1nn(-c2ccccc2)cc1-c1ccccc1)c1ccncc1,inactive: -101%,–
Cc1cc2oc(=O)cc(CN3CCN(Cc4ccccc4)CC3)c2cc1Cl,–,"inconclusive: 0.131 µM [inhibitor, full curve, poor fit]"
c1cnc(N2CCN(c3nc4ccccc4n4cnnc34)CC2)nc1,–,"inconclusive: 14.7 µM [inhibitor, partial curve, poor fit]"
CCOC(=O)c1c(S(=O)(=O)Nc2ccc(F)cc2Cl)c(C)n(C)c1C,–,"inconclusive: 1.47 µM [inhibitor, partial curve]"
Cc1ccc(C2CCN(C(=S)Nc3cccc(Cl)c3)C2)cc1 (configuration not stated),–,"inconclusive: 3.7 µM [inhibitor, full curve]"
COc1ccc(OCC(O)Cn2c(Nc3ccccc3)nc3c2c(=O)n(C)c(=O)n3C)cc1 (configuration not stated),–,"inconclusive: 18.5 µM [inhibitor, single point]"
O=C(Cc1ccc(Br)cc1)OCC(=O)c1ccc2c(c1)OCCO2,inactive: 14.5%,–
COc1c(C)cc(C(=O)C2CCCN(C(=O)c3cc4nc(C)cc(C)n4n3)C2)cc1C (configuration not stated),–,"inconclusive: 10.4 µM [inhibitor, single point]"
O=C(NCCc1ccccc1)C1CCN(S(=O)(=O)N2CCC3(CC2)OCCO3)CC1,inactive: 54.6%,–
COc1cccc(/C=N/NC(=O)c2c(-c3ccccc3)noc2C)c1,–,"inconclusive: 0.522 µM [inhibitor, full curve, poor fit]"
O=C1CS/C(=N/N=C/c2ccccc2)N1Cc1ccco1,inactive: 41.7%,–
COC(=O)c1ccccc1OCC(=O)N1CCN(c2ccc(Cl)cc2)CC1,inactive: 10.6%,–
CCOC1CCCCC1NS(=O)(=O)c1ccc(Cl)cc1 (configuration not stated),–,active: 9.28 µM
COc1ccccc1-c1cc(C(=O)NCCCN2CCOCC2)no1,–,"inconclusive: 1.31 µM [inhibitor, full curve]"
Cc1c(NC(=O)OCCNC(=O)Nc2ccccc2)sc(=S)n1C,–,active: 4.65 µM
CC1CCCN(C(=O)c2ccc(Cl)c(S(=O)(=O)N3CCCCCC3)c2)C1 (configuration not stated),inactive: 23.2%,–

Compound,"activity change, negative = inhibition",Potency
O=c1ccc2cc(S(=O)(=O)Nc3ccc(Br)cc3)ccc2o1,–,"inconclusive: 18.5 µM [inhibitor, single point]"
Cc1ccc(Cn2c(O)c(N=O)c3ccccc32)cc1,–,"inconclusive: 18.5 µM [inhibitor, single point]"
CN1Cc2sc(NC(=S)NC(=O)c3ccccc3)c(C#N)c2CC1(C)C,inactive: -50.5%,–
COc1ccc(C(C(=O)NC2CCCC2)N(Cc2cccnc2)C(=O)Cc2cccs2)c(OC)c1 (configuration not stated),–,"inconclusive: 5.86 µM [inhibitor, single point]"
O=C(N/C(=C\c1cccnc1)C(=O)N1CCOCC1)c1cccc(Br)c1,–,"inconclusive: 0.828 µM [inhibitor, full curve, poor fit]"
CCOc1cc(/C=C2\NC(=S)N(C)C2=O)ccc1OCc1ccc(C(=O)O)cc1,–,"inconclusive: 13.1 µM [inhibitor, single point]"
CNC(=S)Nc1ccc(OCc2ccccc2)cc1,–,"inconclusive: 3.7 µM [inhibitor, single point]"
Cc1ccc(S(=O)(=O)N2CCCOC2CNC(=O)C(=O)NCc2ccccn2)cc1 (configuration not stated),–,"inconclusive: 20.8 µM [inhibitor, partial curve, poor fit]"
CCN(CC)CCn1c2c(c(SCC(=O)Nc3ccc4c(c3)OCCO4)nc1=O)CCC2,–,active: 2.08 µM
COC(=O)c1c(-c2ccc(C)cc2)csc1NC(=O)C1CC=CCC1C(=O)O (configuration not stated),inactive: 6.42%,–
CN(CCOc1ccc(Cl)cc1)C(=O)c1cc(S(=O)(=O)N2CCOCC2)ccc1N1CCCC1,–,"inconclusive: 11.7 µM [inhibitor, single point]"
CCN(CC)c1ccc(C2C3CCCCC3(O)CCN2C(=O)c2cccs2)cc1 (configuration not stated),–,active: 11.7 µM
Cc1[nH]c(=O)c(C#N)c(C)c1Br,inactive: -29.5%,–
O=C(Cn1c(NCCO)nc2ccccc21)c1ccc(Cl)cc1Cl,inactive: 26.7%,–
COc1ccc(COC(=O)c2ccc(S(=O)(=O)N3CCCCC3)cc2)cc1OC,–,"inconclusive: 13.1 µM [inhibitor, single point]"
O=C(Nc1ccccc1C(F)(F)F)N1CCC(N2CCCCC2)CC1,inactive: 4.93%,–
Cc1ccc(NC(=O)CN(C)S(=O)(=O)c2cccc3nsnc23)cc1,inactive: 37.5%,–
CCOC(=O)c1sc(C)c2c(=O)n(Cc3ccc(Cl)cc3)c(C)nc12,–,"inconclusive: 18.5 µM [inhibitor, single point]"
Clc1ccccc1C1SCC2Nc3ccccc3CN21 (configuration not stated),–,"inconclusive: 11.7 µM [inhibitor, single point]"
COc1ccc(NC2=NC(=S)N(c3ccc(C)cc3)C23CCCCC3)cc1,–,"inconclusive: 0.928 µM [inhibitor, partial curve]"
COc1ccc(-c2csc(CCN3N=C(C)CC3=O)n2)cc1,–,"inconclusive: 18.5 µM [inhibitor, single point]"
COc1ccc(C(=O)NCc2cnn(C)c2C)cc1OC1CCN(C(C)C)CC1,–,"inconclusive: 3.29 µM [inhibitor, full curve]"
CC(=O)N1CCN(c2ccc(NC(=O)c3ccco3)cc2Cl)CC1,–,"inconclusive: 11.7 µM [inhibitor, partial curve, poor fit]"
CCN(CC(=O)NC(C)(C)C)C(=O)c1ccccc1SCC(=O)NC1CCCCCCC1,–,"inconclusive: 0.738 µM [inhibitor, full curve]"

# Among those listed so far, these contain a cyano group:
Compound,"activity change, negative = inhibition",Potency
CSc1nc(-c2ccccc2)cc(C(F)(F)F)c1C#N,–,"inconclusive: 11.7 µM [inhibitor, single point]"
CC(C)CC(=O)NC(NC(=S)Nc1sc2c(c1C#N)CCCC2)C(Cl)(Cl)Cl (configuration not stated),–,"inconclusive: 11.7 µM [inhibitor, single point]"
CN1Cc2sc(NC(=S)NC(=O)c3ccccc3)c(C#N)c2CC1(C)C,inactive: -50.5%,–
Cc1[nH]c(=O)c(C#N)c(C)c1Br,inactive: -29.5%,–
